Measurements: the supplement of paper PMC10849652
Some of the results follow.

Protein sequences, listed by entry. Tags and fused reporters are not part of them. Lines headed by an entry give the natural chain unless they say otherwise; changes in a name come on top.
UniProt Q9H0H5: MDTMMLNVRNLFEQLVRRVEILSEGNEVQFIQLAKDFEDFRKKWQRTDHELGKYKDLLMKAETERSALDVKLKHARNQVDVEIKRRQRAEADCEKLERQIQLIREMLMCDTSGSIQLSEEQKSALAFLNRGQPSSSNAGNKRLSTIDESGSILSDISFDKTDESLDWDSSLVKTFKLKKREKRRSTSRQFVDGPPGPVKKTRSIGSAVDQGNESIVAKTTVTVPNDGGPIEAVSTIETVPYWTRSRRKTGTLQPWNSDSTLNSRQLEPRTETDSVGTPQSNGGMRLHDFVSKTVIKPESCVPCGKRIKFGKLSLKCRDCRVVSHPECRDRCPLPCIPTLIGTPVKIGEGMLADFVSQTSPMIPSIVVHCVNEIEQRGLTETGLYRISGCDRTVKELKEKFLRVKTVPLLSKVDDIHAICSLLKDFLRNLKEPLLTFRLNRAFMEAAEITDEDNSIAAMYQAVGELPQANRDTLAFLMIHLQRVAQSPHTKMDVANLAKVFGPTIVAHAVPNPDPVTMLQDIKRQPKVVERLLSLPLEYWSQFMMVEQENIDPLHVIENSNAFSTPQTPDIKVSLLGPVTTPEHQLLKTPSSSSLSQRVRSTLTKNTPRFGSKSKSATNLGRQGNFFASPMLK
UniProt Q9UL25: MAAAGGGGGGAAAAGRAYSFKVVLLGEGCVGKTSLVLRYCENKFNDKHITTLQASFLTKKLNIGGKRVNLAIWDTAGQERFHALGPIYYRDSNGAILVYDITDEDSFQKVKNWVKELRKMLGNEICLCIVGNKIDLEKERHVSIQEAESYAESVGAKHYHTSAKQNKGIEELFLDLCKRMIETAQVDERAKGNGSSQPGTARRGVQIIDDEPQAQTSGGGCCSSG
UniProt Q8WWW0: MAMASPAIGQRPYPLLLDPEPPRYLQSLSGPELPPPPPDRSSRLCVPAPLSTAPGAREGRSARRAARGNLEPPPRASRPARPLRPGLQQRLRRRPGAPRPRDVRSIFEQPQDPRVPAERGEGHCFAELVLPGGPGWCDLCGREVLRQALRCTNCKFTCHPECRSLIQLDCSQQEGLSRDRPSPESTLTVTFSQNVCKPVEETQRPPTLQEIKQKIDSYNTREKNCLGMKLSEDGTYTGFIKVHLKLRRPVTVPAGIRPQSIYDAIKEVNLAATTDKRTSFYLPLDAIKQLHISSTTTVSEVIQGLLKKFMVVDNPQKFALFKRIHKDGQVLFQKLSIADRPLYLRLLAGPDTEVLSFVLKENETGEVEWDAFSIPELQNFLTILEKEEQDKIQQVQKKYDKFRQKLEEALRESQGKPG
UniProt O75771: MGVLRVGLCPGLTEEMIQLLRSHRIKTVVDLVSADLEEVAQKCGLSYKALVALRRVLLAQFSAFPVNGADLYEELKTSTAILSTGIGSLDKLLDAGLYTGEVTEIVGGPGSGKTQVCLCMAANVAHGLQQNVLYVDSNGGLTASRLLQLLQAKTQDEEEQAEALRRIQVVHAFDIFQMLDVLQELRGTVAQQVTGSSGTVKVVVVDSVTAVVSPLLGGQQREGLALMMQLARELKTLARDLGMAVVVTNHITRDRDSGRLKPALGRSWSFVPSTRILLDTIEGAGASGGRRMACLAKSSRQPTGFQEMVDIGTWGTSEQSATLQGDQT
UniProt Q9BTL3: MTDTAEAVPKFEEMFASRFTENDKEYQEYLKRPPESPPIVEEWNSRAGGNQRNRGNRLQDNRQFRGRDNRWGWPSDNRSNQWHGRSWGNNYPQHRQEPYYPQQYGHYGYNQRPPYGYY
UniProt O00194: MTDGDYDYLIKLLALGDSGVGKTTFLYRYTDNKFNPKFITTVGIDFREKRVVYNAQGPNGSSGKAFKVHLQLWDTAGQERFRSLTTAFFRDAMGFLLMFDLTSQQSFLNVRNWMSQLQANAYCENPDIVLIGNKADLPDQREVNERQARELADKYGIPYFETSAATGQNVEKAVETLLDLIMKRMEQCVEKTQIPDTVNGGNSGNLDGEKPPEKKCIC
UniProt P61026: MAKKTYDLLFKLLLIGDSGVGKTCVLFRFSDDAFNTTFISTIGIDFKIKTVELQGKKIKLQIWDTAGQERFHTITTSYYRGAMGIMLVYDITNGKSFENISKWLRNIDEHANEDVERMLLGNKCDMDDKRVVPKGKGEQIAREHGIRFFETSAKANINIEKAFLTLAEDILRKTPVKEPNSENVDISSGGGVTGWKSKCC
UniProt Q96I25: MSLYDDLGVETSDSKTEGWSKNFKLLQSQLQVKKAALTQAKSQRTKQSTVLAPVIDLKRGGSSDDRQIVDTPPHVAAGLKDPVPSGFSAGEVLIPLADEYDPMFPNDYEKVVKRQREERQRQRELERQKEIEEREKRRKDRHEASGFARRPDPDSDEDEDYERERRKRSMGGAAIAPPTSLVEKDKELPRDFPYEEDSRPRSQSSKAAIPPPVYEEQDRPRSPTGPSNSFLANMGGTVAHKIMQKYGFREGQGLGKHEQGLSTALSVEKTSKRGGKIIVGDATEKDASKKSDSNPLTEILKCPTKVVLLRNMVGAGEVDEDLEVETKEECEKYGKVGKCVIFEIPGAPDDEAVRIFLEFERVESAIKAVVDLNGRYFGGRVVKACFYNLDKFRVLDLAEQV
UniProt Q8N0T1: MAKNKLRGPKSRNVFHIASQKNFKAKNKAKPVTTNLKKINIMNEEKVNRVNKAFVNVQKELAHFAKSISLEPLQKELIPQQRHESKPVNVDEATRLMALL
UniProt P61006: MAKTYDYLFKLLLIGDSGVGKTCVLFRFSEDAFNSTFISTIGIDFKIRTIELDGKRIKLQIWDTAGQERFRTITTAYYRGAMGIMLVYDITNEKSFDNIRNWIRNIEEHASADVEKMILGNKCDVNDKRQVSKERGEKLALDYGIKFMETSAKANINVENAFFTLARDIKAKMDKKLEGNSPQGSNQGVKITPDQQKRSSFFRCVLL
UniProt Q8WUD1: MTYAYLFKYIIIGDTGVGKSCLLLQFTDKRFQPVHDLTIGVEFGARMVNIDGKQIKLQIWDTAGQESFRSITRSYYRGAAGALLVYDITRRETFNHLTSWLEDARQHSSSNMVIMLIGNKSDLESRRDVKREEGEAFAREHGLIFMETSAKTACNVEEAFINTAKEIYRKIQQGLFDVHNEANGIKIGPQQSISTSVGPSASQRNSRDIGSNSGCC
UniProt O43502: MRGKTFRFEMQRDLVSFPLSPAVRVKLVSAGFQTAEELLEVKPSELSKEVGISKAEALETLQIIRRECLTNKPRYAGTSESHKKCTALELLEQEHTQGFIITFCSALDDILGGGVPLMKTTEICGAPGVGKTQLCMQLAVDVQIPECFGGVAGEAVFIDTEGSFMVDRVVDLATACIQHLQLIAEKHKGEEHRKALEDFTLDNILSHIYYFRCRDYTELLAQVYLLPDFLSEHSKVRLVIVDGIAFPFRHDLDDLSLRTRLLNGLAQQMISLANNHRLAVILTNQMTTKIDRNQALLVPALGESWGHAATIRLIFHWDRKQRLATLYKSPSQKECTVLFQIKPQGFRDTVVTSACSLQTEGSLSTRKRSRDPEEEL
UniProt Q92696: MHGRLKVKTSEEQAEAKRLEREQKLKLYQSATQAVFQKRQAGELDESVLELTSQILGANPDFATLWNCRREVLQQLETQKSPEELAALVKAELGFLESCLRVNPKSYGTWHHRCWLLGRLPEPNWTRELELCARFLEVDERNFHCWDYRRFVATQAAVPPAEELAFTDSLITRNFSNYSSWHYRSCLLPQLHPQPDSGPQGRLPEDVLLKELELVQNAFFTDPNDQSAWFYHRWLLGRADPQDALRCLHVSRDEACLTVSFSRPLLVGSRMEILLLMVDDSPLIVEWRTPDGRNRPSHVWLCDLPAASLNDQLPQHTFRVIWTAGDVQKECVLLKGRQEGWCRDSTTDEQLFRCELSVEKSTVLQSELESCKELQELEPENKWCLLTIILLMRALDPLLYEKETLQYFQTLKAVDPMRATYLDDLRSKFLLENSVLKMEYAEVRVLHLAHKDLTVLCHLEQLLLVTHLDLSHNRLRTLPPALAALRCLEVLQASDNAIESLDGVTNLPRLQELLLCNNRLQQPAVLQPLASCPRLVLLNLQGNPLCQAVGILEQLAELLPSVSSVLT
UniProt Q9NTZ6: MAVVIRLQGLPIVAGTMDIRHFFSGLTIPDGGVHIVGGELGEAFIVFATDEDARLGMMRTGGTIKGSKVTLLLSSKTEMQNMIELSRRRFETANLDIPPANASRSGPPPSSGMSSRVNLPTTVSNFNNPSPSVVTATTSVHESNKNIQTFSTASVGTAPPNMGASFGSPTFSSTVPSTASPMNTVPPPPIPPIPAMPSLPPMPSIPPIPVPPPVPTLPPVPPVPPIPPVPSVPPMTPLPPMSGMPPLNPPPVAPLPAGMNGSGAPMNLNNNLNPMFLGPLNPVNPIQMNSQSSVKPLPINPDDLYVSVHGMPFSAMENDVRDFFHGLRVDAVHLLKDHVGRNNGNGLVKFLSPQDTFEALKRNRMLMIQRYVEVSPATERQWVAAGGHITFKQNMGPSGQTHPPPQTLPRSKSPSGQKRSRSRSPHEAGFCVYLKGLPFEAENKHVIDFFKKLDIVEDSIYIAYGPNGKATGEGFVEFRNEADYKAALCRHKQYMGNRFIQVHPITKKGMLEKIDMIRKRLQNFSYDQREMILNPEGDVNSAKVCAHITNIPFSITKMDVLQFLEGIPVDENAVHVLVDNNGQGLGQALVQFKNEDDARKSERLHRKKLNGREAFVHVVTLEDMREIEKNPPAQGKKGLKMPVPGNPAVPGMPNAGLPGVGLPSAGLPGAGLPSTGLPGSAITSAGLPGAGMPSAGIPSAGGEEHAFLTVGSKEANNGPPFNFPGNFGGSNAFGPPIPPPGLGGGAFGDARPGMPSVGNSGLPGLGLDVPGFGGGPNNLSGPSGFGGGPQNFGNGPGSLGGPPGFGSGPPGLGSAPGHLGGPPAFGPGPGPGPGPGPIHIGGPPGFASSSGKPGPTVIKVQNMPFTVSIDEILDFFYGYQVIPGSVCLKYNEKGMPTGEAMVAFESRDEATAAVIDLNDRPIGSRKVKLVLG
UniProt Q5T160: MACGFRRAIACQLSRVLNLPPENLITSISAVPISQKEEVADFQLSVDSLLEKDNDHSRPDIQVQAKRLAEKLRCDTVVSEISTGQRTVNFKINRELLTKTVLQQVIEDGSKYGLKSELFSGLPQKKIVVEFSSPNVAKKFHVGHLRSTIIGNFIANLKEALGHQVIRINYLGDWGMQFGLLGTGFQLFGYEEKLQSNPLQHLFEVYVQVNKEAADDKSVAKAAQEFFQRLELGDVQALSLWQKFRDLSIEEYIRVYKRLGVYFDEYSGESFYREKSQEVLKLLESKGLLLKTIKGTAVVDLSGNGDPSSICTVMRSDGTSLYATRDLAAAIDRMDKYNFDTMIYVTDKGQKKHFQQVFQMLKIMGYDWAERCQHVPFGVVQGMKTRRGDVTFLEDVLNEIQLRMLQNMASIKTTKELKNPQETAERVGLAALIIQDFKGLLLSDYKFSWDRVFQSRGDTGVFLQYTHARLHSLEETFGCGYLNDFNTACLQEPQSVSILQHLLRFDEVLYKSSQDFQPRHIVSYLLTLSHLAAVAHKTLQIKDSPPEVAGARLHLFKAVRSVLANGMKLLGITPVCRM
UniProt Q96S59, whole entry, looked up: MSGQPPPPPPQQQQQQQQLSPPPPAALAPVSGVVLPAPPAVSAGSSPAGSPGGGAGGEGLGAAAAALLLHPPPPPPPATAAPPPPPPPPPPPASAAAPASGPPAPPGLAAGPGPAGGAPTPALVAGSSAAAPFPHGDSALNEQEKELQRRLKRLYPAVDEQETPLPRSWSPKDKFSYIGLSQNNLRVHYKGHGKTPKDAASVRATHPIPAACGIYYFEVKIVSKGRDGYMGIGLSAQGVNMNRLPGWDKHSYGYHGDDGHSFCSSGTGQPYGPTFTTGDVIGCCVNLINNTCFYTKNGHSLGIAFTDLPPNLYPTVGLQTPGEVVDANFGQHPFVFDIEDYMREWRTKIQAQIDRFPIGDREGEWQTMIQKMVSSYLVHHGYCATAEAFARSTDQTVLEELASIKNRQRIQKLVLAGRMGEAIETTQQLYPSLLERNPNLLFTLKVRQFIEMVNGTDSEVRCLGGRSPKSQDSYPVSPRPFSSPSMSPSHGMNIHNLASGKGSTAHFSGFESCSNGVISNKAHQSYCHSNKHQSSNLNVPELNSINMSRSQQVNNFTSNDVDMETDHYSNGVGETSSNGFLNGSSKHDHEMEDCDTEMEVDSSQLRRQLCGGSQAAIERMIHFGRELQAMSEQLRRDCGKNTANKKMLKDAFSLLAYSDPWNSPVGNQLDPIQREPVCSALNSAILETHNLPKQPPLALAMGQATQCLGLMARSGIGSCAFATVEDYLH
UniProt Q06609, whole entry, looked up: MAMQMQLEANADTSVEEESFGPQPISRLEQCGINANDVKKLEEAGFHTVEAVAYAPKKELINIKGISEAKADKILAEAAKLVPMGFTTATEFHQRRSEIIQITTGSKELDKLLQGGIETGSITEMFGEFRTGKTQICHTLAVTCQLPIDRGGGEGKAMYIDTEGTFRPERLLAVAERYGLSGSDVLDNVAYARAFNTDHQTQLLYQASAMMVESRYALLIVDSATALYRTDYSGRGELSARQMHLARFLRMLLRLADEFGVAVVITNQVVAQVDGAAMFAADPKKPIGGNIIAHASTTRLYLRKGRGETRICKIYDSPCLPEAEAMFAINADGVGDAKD

Columns and labels:
Experiment in all cases: log2 fold change, soluble protein after heating vs DMSO (PISA); higher = thermal stabilisation; K562 cells, 10 uM, 30 min; active = over 0.2 and 3.5 SD of the protein, either way, in both replicates (recomputed)
bafetinib = compound: Cc1ccc(NC(=O)c2ccc(CN3CC[C@H](N(C)C)C3)c(C(F)(F)F)c2)cc1Nc1nccc(-c2cncnc2)n1 [bafetinib]
How it was run: (§1)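 K562 cells at 2×10^6 cells/mL were treated with 10 μM compound for 30 min. Aliquots were heated for 3 min across 48°C-58°C, pooled, and extracted in PBS with 0.5% NP-40 at 4°C; soluble protein was the supernatant after 21,000xg for 90 min. Soluble protein was quantified by TMTpro 16plex LC-MS/MS with channel sums equalised, and reported as log2 fold change in thermal stability against DMSO controls, with values from duplicates.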

[1] = compound: Cc1cccc(CC(=O)N2CCc3c2ccc(-c2cn(C)c4ncnc(N)c24)c3F)n1
How it was run: as §1

nilotinib = compound: Cc1cn(-c2cc(NC(=O)c3ccc(C)c(Nc4nccc(-c5cccnc5)n4)c3)cc(C(F)(F)F)c2)cn1 [nilotinib]
How it was run: as §1

[2] = compound: Cc1nc(Nc2n[nH]c3c2CN(C(=O)N[C@H](CN(C)C)c2ccccc2)C3(C)C)c2sccc2n1
How it was run: as §1

dasatinib = compound: Cc1nc(Nc2ncc(C(=O)Nc3c(C)cccc3Cl)s2)cc(N2CCN(CCO)CC2)n1 [dasatinib]
How it was run: as §1

[3] = compound: Cc1ncc(-c2ccnc(Nc3ccc(S(C)(=O)=O)cc3)n2)n1C(C)C
How it was run: as §1

[4] = compound: Cn1cc(-c2ccc3c(c2)CCN3C(=O)Cc2cccc(C(F)(F)F)c2)c2c(N)ncnc21
How it was run: as §1

[5] = compound: Cn1cc(-c2ccc3nnc(C(F)(F)c4ccc5ncccc5c4)n3n2)cn1
How it was run: as §1

tipifarnib = compound: Cn1cncc1[C@@](N)(c1ccc(Cl)cc1)c1ccc2c(c1)c(-c1cccc(Cl)c1)cc(=O)n2C [tipifarnib]
How it was run: as §1

mubritinib = compound: FC(F)(F)c1ccc(/C=C/c2nc(COc3ccc(CCCCn4ccnn4)cc3)co2)cc1 [mubritinib]
How it was run: as §1

Measured: log2 fold change

RACGAP1 (UniProt Q9H0H5)
inactive: bafetinib -0.083 | [1] 0.001 | nilotinib -0.01 | [2] -0.304 | dasatinib -0.017 | [3] 0.065 | [4] 0.054 | [5] -0.139 | tipifarnib 0.169 | mubritinib -0.019

RAD50 isoform 2 (UniProt Q92878)
inactive: bafetinib -0.015 | [1] 0.009 | nilotinib -0.039 | [2] -0.112 | dasatinib -0.089 | [3] -0.016 | [4] 0.023 | [5] 0.042 | tipifarnib -0.017 | mubritinib 0.063

RALA (UniProt P11233)
inactive: bafetinib -0.026 | [1] 0.178 | nilotinib 0.064 | [2] -0.012 | dasatinib 0.027 | [3] -0.026 | [4] 0.014 | [5] 0.043 | tipifarnib -0.06 | mubritinib 0.015

RAB1A (UniProt P62820)
inactive: bafetinib -0.024 | [1] -0.068 | nilotinib 0.041 | [2] -0.008 | dasatinib 0.039 | [3] 0.003 | [4] -0.005 | [5] -0.001 | tipifarnib 0.025 | mubritinib 0.013

RAB21 (UniProt Q9UL25)
inactive: bafetinib -0.038 | [1] 0.023 | nilotinib -0.004 | [2] 0.041 | dasatinib 0.009 | [3] -0.009 | [4] 0.046 | [5] 0.039 | tipifarnib -0.005 | mubritinib 0.011

RASSF5 (UniProt Q8WWW0)
inactive: bafetinib 0.023 | [1] 0.017 | nilotinib 0.035 | [2] 0.096 | dasatinib 0.014 | [3] -0.068 | [4] -0.149 | [5] -0.076 | tipifarnib 0.021 | mubritinib 0.096

RANBP17 (UniProt Q9H2T7)
inactive: bafetinib -0.059 | [1] 0.14 | nilotinib -0.134 | [2] -0.099 | dasatinib -0.083 | [3] 0.021 | [4] -0.094 | [5] 0.085 | tipifarnib 0.036 | mubritinib -0.069

RBM22 (UniProt Q9NW64)
inactive: bafetinib -0.085 | [1] 0 | nilotinib -0.019 | [2] -0.051 | dasatinib -0.07 | [3] 0.024 | [4] -0.133 | [5] -0.071 | tipifarnib 0.008 | mubritinib -0.048

RAD1 (UniProt O60671)
inactive: bafetinib -0.015 | [1] -0.024 | nilotinib -0.066 | [2] -0.086 | dasatinib 0.021 | [3] 0.009 | [4] 0.007 | [5] 0.051 | tipifarnib -0.017 | mubritinib 0.059

RAD51D (UniProt O75771)
inactive: bafetinib 0.117 | [1] -0.174 | nilotinib 0.101 | [2] -0.127 | dasatinib -0.128 | [3] -0.035 | [4] 0.178 | [5] -0.12 | tipifarnib -0.107 | mubritinib 0.036

RAP1A (UniProt P62834)
inactive: bafetinib -0.017 | [1] -0.065 | nilotinib 0.099 | [2] -0.054 | dasatinib 0.052 | [3] 0.023 | [4] 0.041 | [5] -0.016 | tipifarnib 0.018 | mubritinib 0.001

RAMAC (UniProt Q9BTL3)
inactive: bafetinib 0.035 | [1] 0.079 | nilotinib -0.043 | [2] 0.05 | dasatinib 0.078 | [3] 0.006 | [4] -0.043 | [5] 0 | tipifarnib 0.104 | mubritinib -0.004

RAB27B (UniProt O00194)
inactive: bafetinib -0.074 | [1] -0.061 | nilotinib 0.027 | [2] 0.015 | dasatinib 0.076 | [3] -0.016 | [4] 0.021 | [5] -0.039 | tipifarnib 0.038 | mubritinib 0.025

RAB10 (UniProt P61026)
inactive: bafetinib -0.036 | [1] -0.033 | nilotinib 0.006 | [2] 0 | dasatinib 0.028 | [3] -0.001 | [4] 0.005 | [5] 0.015 | tipifarnib 0.004 | mubritinib 0.02

RALB isoform 2 (UniProt P11234)
inactive: bafetinib -0.005 | [1] -0.122 | nilotinib 0.043 | [2] -0.003 | dasatinib 0.013 | [3] 0.019 | [4] 0.019 | [5] -0.029 | tipifarnib -0.001 | mubritinib 0.006

RBM17 (UniProt Q96I25)
inactive: bafetinib -0.056 | [1] 0.042 | nilotinib -0.095 | [2] -0.249 | dasatinib -0.108 | [3] 0.011 | [4] -0.067 | [5] -0.028 | tipifarnib -0.042 | mubritinib -0.148

RBIS (UniProt Q8N0T1)
inactive: bafetinib 0.012 | [1] -0.058 | nilotinib -0.058 | [2] 0.101 | dasatinib 0.008 | [3] -0.079 | [4] 0.023 | [5] 0.004 | tipifarnib -0.02 | mubritinib 0.021

RAB3IL1 (UniProt Q8TBN0)
inactive: bafetinib -0.025 | [1] 0.034 | nilotinib -0.016 | [2] 0.012 | dasatinib -0.054 | [3] -0.015 | [4] -0.007 | [5] 0.002 | tipifarnib -0.051 | mubritinib 0.017

RAB8A isoform 2 (UniProt P61006)
inactive: bafetinib -0.025 | [1] -0.039 | nilotinib -0.028 | [2] 0.012 | dasatinib 0.028 | [3] -0.012 | [4] -0.025 | [5] -0.001 | tipifarnib 0.017 | mubritinib -0.011

RAB2B (UniProt Q8WUD1)
inactive: bafetinib -0.019 | [1] 0.06 | nilotinib 0.063 | [2] -0.018 | dasatinib 0.026 | [3] 0.02 | [4] 0.016 | [5] -0.036 | tipifarnib -0.018 | mubritinib 0.012

RAD51C (UniProt O43502)
inactive: bafetinib -0.118 | [1] 0.02 | nilotinib -0.007 | [2] -0.039 | dasatinib -0.107 | [3] 0.003 | [4] 0.005 | [5] 0.009 | tipifarnib 0.068 | mubritinib 0.091

RAC1 (UniProt P63000)
inactive: bafetinib 0.184 | [1] -0.017 | nilotinib 0.073 | [2] 0.045 | dasatinib 0.007 | [3] 0.048 | [4] 0.024 | [5] -0.037 | tipifarnib 0.106 | mubritinib 0.026

RAP1GAP isoform 4 (UniProt P47736)
inactive: bafetinib -0.015 | [1] -0.074 | nilotinib 0.018 | [2] -0.185 | dasatinib -0.035 | [3] -0.078 | [4] -0.049 | [5] 0.021 | tipifarnib -0.059 | mubritinib -0.195

RABGGTA (UniProt Q92696)
inactive: bafetinib -0.019 | [1] 0.027 | nilotinib 0.033 | [2] -0.088 | dasatinib 0.076 | [3] -0.076 | [4] 0.089 | [5] -0.015 | tipifarnib 0.08 | mubritinib 0.002

RAE1 (UniProt P78406)
inactive: bafetinib 0.014 | [1] -0.002 | nilotinib -0.058 | [2] -0.077 | dasatinib -0.045 | [3] 0.013 | [4] -0.065 | [5] -0.083 | tipifarnib -0.02 | mubritinib -0.101

Quoted from the entries so far (2 entries):
RABGGTA (UniProt Q92696)
inactive: bafetinib -0.019 | [1] 0.027 | nilotinib 0.033 | [2] -0.088 | dasatinib 0.076 | [3] -0.076 | [4] 0.089 | [5] -0.015 | tipifarnib 0.08 | mubritinib 0.002

RAE1 (UniProt P78406)
inactive: bafetinib 0.014 | [1] -0.002 | nilotinib -0.058 | [2] -0.077 | dasatinib -0.045 | [3] 0.013 | [4] -0.065 | [5] -0.083 | tipifarnib -0.02 | mubritinib -0.101

Following part.

RBM12 (UniProt Q9NTZ6)
inactive: bafetinib 0.026 | [1] 0.046 | nilotinib -0.108 | [2] -0.227 | dasatinib -0.287 | [3] -0.09 | [4] 0.048 | [5] 0.015 | tipifarnib -0.061 | mubritinib 0.032

RAVER1 (UniProt E9PAU2)
inactive: bafetinib -0.155 | [1] 0 | nilotinib -0.091 | [2] -0.319 | dasatinib -0.309 | [3] -0.299 | [4] 0.155 | [5] 0.011 | tipifarnib -0.351 | mubritinib 0.134

RARS2 (UniProt Q5T160)
inactive: bafetinib -0.148 | [1] 0.104 | nilotinib -0.039 | [2] 0.019 | dasatinib -0.023 | [3] -0.006 | [4] 0.061 | [5] 0.012 | tipifarnib -0.008 | mubritinib 0.075

RANBP9 (UniProt Q96S59)
inactive: bafetinib -0.011 | [1] -0.003 | nilotinib 0.002 | [2] -0.003 | dasatinib -0.016 | [3] 0.013 | [4] -0.061 | [5] -0.061 | tipifarnib 0.03 | mubritinib 0.014

RAD51 (UniProt Q06609)
inactive: bafetinib -0.002 | [1] 0.021 | nilotinib -0.082 | [2] -0.006 | dasatinib -0.009 | [3] 0.04 | [4] 0.037 | [5] 0.003 | tipifarnib 0.11 | mubritinib -0.017
